According to US20120269817A1:
These are yes or no findings as the source states them, for the method shown. Some entries that bind do so weakly or less than the wild type.

Chains of the proteins cited; added tags and fusions are not shown. Lines headed by an entry give the natural chain unless they say otherwise; changes in a name come on top. Residues count along the entry.
UniProt P10646: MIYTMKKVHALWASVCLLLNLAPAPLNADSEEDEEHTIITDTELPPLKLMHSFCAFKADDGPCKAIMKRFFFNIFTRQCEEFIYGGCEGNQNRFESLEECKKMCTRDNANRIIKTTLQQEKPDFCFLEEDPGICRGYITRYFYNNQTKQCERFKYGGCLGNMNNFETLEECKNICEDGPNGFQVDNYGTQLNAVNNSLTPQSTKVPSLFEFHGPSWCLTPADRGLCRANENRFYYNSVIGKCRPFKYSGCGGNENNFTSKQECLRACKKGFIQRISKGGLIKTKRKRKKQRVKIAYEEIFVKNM
human TFPI K1 + K2 + K3: residues 29-270 of P10646
human TFPI K1 + K2: residues 29-189 of P10646
UniProt O54819, residues 29-289: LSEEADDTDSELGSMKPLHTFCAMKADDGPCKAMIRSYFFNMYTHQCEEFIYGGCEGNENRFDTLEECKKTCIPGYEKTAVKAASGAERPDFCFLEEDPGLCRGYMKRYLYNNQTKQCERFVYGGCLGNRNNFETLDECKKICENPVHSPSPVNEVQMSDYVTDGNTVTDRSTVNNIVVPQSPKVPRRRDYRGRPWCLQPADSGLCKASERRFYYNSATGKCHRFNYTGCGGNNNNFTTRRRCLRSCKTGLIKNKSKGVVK

Key:
[1] = target: human TFPI K1 + K2 (human) (UniProt P10646); experiment: Western blots and ELISA
[2] = target: human TFPI K1 + K2 + K3 (human) (UniProt P10646); experiment: Western blots and ELISA
[3] = target: mouse tissue factor pathway inhibitor (TFPI) (mouse) (UniProt O54819); experiment: ELISA on coated mouse TFPI, titration of the IgG, fluorescence units

Measured: binding

B1: 2G6-IgG (antibody, V domains shown)
VH: QVQLQQSGPGLVKPSQTLSLTCAISGDSVSSSSAAWSWIRQSPGRGLEWLGIIYYRSKWYNDYAVSVKSRITINPDTSKNQFSLQLNSVTPEDTAVYYCARHSMVGFDVWGQGTLVTVSS
VL: DIVLTQSPATLSLSPGERATLSCRASQYVTSSYLAWYQQKPGQAPRLLIYGSSRATGVPARFSGSGSGTDFTLTISSLEPEDFATYYCQQYSSSPITFGQGTKVEIKR
binds: [1] | [2] | [3]
